Source: publication PMC2613030
No constants are given. Whether binding was seen depends on the method and setting. In cells and extracts the contact can be indirect. Some binding calls cover weakened binding; strength is not graded here.

Target: T1, saglin on mosquito salivary glands (not stated (endogenous in mosquito salivary glands; An. gambiae and An. stephensi colonies kept)) (UniProt F7IW82)
T1 sequence: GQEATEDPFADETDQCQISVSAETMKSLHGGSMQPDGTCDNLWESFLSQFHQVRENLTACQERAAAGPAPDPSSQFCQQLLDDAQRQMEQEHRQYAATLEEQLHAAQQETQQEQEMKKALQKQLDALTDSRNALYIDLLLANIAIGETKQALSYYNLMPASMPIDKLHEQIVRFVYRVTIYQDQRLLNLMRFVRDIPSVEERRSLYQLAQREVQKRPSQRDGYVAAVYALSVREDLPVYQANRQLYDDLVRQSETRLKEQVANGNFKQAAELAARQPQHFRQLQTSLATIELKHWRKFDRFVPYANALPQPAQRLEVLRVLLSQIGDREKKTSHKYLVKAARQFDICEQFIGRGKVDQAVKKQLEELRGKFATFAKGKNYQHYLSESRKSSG
Experiment: cross-linking; double-derivatized SM1 (10 µg/ml in PBS) incubated with freshly dissected salivary glands 1 h at 4°C in the dark, washed, UV 30 min, glands lysed (0.1% NP40), capture on streptavidin-agarose beads, SDS-PAGE under reducing conditions, bands identified by LC/MS/MS; only the binder purified

binding: binds
B1: double-derivatized SM1 peptide (peptide)
peptide: PCQRAIFQSICN
